Measurements taken from paper PMC9237128, “Molecular insights into intra-complex signal transmission during stressosome activation” (Communications Biology, 2022).
No constants are given. Whether binding was seen depends on the method and setting. Some entries that bind do so weakly or less than the wild type.

Target: Listeria innocua RsbR/RsbS stressosome complex (LiRsbRS) (Listeria innocua) (UniProt Q92DC6+Q7AP18)
Experiment: negative stain EM; first fraction of LiRsbRS from the DEAE run (eluted at 50 mM NaCl); also SEC peak fractions at 100-1000 mM NaCl, with more interaction between complexes at higher ionic strength; both purified

binding: binds
B1: Listeria innocua RsbR/RsbS stressosome complex (LiRsbRS) (complex, UniProt Q92DC6 1-278; Q7AP18 1-118)
chain 1: MYKDFANFIRTNKKDLLNNWMNEMEKQSDPLINDIAKEPMYEETSIEFVDLIVSNITENGSKFNEKLDDFAEKVVHLGWPIHFVTTGLRVFGLLVYTAMRDEDLFLKREEKPEDDAYYRFETWLSSMYNKVVTAYADTWEKTVSIQKSALQELSAPLLPIFEKISVMPLIGTIDTERAKLIIENLLIGVVKNRSEVVLIDITGVPVVDTMVAHHIIQASEAVRLVGCQAMLVGIRPEIAQTIVNLGIELDQIITTNTMKKGMERALALTNREIVEKEG
chain 2: MGIPILKLGECLLISIQSELDDHTAVEFQEDLLAKIHETSARGVVIDITSIDFIDSFIAKILGDVVSMSKLMGAKVVVTGIQPAVAITLIELGITFSGVLSAMDLESGLEKLKQELGE
modifications: phosphothreonine at 241 (in RsbR protomers interacting with RsbS)
